The results in this text go back to article PMC10797486.

No constants are given. Whether binding was seen depends on the method and setting. Some results given as binding are weak or reduced against the parent protein; the word gives no strength.

This assay has as its target POPEYE (PYE) (Arabidopsis thaliana) (UniProt Q9SN74). Put plainly: two-hybrid; yeast two-hybrid (Clontech), GAL4 BD baits and GAL4 AD preys; co-transformed yeast spotted in a 10-fold dilution series; growth on SD-W/L and SD-W/L/H/A.

B1: POPEYE (PYE) (protein, UniProt Q9SN74 1-240)
chain: MVSKTPSTSSDEANATADERCRKGKVPKRINKAVRERLKREHLNELFIELADTLELNQQNSGKASILCEATRFLKDVFGQIESLRKEHASLLSESSYVTTEKNELKEETSVLETEISKLQNEIEARANQSKPDLNTSPAPEYHHHHYQQQHPERVSQFPGLPIFQGPGFQQSATTLHPPATVLVLPIQPDPQTQDISEMTQAQQPLMFNSSNVSKPCPRYASAADSWSSRLLGERLKASE
For B1, the binding entry is reported as “binds”.
